{
  "source": "patent US10167453B2",
  "about": "“Saccharide oxidase, and production method for same and use of same” (AMANO ENZYME INC., priority 2012, dated 2019)",
  "key": {"[1]": {"test": "Easiness in handling unbaked bread preparation (dough)", "conditions": "for handling and stickiness of the unbaked preparation (in words): 17 U enzyme, or 50 ppm hemicellulase or ascorbic acid"}, "[2]": {"test": "Production of bread, volume and hardness"}},
  "data": [
    {"molecule": "O=C1O[C@H]([C@@H](O)CO)C(O)=C1O", "note": "[Ascorbic acid, ascorbic acid, reference compound]", "values": [
      {"measurement": "handling and stickiness of the unbaked preparation (in words)", "setting": "[1]", "result": "didn't deposit on the machine"}
    ]},
    {"molecule": "Saccharide oxidase: protein having saccharide oxidase activity purified from Acremonium chrysogenum NBRC30055, about 63 kDa, amino acid sequence SEQ. ID. NO:10 (protein, listed as Acremonium chrysogenum) MRSLAPLLSIAALARASPVDTSLLTRQETLNTCLEAAELSYVDVNSEDWEDAIVPHNLRVPVVPRAVVYATATEQIQAAVKCAVESEIRVSAKSGGHSYASMGLGGEDGSLVIQLDHWHDVTLRDDNTAVVSAGTRLGVVALELYAQGKRGISHGTCPSVGVGGHVVHGGYGFSSHTHGLALDAVVGANVVLADGSLVHASETENTDLFWALRGGGSSFGIVAEFEFETFDVSHNFSYFSIDSDISQETAEEATASLLAFQDALEEGLMDRKLNMRLSLGRPKVTLEAVYHGAKEDGRKALELFDDILGLNWSSNRTRANEADWLTMLESWTYGDPLNITYPYEGHDNAYTSSLVTRHIPEDAMASFMTYWKGVGQDRETPNWWLQMDVHGDANSRISEVDADSTAYSHRDKLWLFQFSSPLNPLRPDPEAAFALVNGYMDSIKDHLGDGEWGRYANYIDSELSREDAQTQYWSDHLDKLQAIKAELDPTQVFYNPQSIDPAAVE", "values": [
      {"measurement": "hardness of the bread", "setting": "[2]; 10 U enzyme, maximum load at 10 mm compression, Day 1 and Day 4, compared with the glucose oxidase", "result": "increase in the hardness"},
      {"measurement": "volume of the bread", "setting": "[2]; 10 U enzyme, rapeseed substitution method", "result": "allowed the volume to be reduced"},
      {"measurement": "stickiness of the unbaked preparation", "setting": "[2]; compared with the glucose oxidase", "result": "reduced stickiness"},
      {"measurement": "appearance of the unbaked preparation by visual inspection", "setting": "[1]; 17 U enzyme", "result": "network appearance"},
      {"measurement": "handling and stickiness of the unbaked preparation (in words)", "setting": "[1]", "result": "didn't deposit on the machine"}
    ]}
  ]
}
